Laboratory results as given in article PMC7295033.
No constants are given. Whether binding was seen depends on the method and setting. In cells and extracts the contact can be indirect. A yes stands for co-enrichment or nearness to the bait. Other partners may have been found.

Chains of the proteins cited; added tags and fusions are not shown.
UniProt Q60857: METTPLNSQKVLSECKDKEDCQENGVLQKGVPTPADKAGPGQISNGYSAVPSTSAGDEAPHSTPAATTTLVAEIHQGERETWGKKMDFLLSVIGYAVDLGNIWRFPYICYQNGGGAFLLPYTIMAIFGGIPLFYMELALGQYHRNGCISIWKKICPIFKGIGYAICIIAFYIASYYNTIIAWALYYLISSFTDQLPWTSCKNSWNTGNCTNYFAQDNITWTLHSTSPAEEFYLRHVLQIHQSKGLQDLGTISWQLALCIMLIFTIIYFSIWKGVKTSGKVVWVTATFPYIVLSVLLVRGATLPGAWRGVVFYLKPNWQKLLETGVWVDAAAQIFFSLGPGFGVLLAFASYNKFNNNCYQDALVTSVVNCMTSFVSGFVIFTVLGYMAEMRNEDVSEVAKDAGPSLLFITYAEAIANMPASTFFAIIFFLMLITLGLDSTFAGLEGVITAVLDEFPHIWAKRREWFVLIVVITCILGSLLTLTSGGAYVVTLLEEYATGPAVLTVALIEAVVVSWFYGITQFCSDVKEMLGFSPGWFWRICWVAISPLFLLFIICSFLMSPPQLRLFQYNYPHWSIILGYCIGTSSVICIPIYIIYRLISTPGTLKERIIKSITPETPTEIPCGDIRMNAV

B1: Cask (protein, UniProt O70589 1-926)
chain: MADDDVLFEDVYELCEVIGKGPFSVVRRCINRETGQQFAVKIVDVAKFTSSPGLSTEDLKREASICHMLKHPHIVELLETYSSDGMLYMVFEFMDGADLCFEIVKRADAGFVYSEAVASHYMRQILEALRYCHDNNIIHRDVKPHCVLLASKENSAPVKLGGFGVAIQLGESGLVAGGRVGTPHFMAPEVVKREPYGKPVDVWGCGVILFILLSGCLPFYGTKERLFEGIIKGKYKMNPRQWSHISESAKDLVRRMLMLDPAERITVYEALNHPWLKERDRYAYKIHLPETVEQLRKFNARRKLKGAVLAAVSSHKFNSFYGDPPEELPDFSEDPTSSGLLAAERAVSQVLDSLEEIHALTDCSEKDLDFLHSVFQDQHLHTLLDLYDKINTKSSPQIRNPPSDAVQRAKEVLEEISCYPENNDAKELKRILTQPHFMALLQTHDVVAHEVYSDEALRVTPPPTSPYLNGDSPESANGDMDMENVTRVRLVQFQKNTDEPMGITLKMNELNHCIVARIMHGGMIHRQGTLHVGDEIREINGISVANQTVEQLQKMLREMRGSITFKIVPSYRTQSSSCERDSPSTSRQSPANGHSSTNNSVSDLPSTTQPKGRQIYVRAQFEYDPAKDDLIPCKEAGIRFRVGDIIQIISKDDHNWWQGKLENSKNGTAGLIPSPELQEWRVACIAMEKTKQEQQASCTWFGKKKKQYKDKYLAKHNAVFDQLDLVTYEEVVKLPAFKRKTLVLLGAHGVGRRHIKNTLITKHPDRFAYPIPHTTRPPKKDEENGKNYYFVSHDQMMQDISNNEYLEYGSHEDAMYGTKLETIRKIHEQGLIAILDVEPQALKVLRTAEFAPFVVFIAAPTITPGLNEDESLQRLQKESDVLQRTYAHYFDLTIINNEIDETIRHLEEAVELVCTAPQWVPVSWVY
B2: Magi3 (protein, UniProt Q9EQJ9 1-1476)
chain: MSKTLKKKKHWLSKVQECAVSWAGPPGDLGAEIRGGAERGEFPYLGRLRDEAGGGGGTCCVVSGKAPSPGDVLLEVNGTPVSGLTNRDTLAVIRHFREPIRLKTVKPGKVINKDLRHYLSLQFQKGSIDHKLQQVIRDNLYLRTIPCTTRAPRDGEVPGVDYNFISVEQFKALEESGALLESGTYDGNFYGTPKPPAEPSPFQPDPVDQVLFDNEFDTESQRKRTTSVSKMERMDSSLPEEEEDEDKEAVNGSGSMETREMHSETSDCWMKTVPSYNQTNSSMDFRNYMMRDENLEPLPKNWEMAYTDTGMIYFIDHNTKTTTWLDPRLCKKAKAPEDCEDGELPYGWEKIEDPQYGTYYVDHLNQKTQFENPVEEAKRKKQLGQAEIHSAKTDVERAHFTRDPSQLKGVLVRASLKKSTMGFGFTIIGGDRPDEFLQVKNVLKDGPAAQDGKIAPGDVIVDINGNCVLGHTHADVVQMFQLVPVNQYVNLTLCRGYPLPDDSEDPVVDIVAATPVINGQSLTKGETCMNTQDFKLGAMVLDQNGKSGQILASDRLNGPSESSEQRASLASSGSSQPELVTIPLIKGPKGFGFAIADSPTGQKVKMILDSQWCQGLQKGDIIKEIYHQNVQNLTHLQVVEVLKQFPVGADVPLLILRGGPCSPTKTAKTKTDTKENSGSLETINEPIPQPMPFPPSIIRSGSPKLDPSEVYLKSKTLYEDKPPNTKDLDVFLRKQESGFGFRVLGGDGPDQSIYIGAIIPLGAAEKDGRLRAADELMCIDGIPVKGKSHKQVLDLMTTAARNGHVLLTVRRKIFYGEKQPEDESHQAFSQNGSPRLNRAELPTRSAPQEAYDVTLQRKENEGFGFVILTSKSKPPPGVIPHKIGRVIDGSPADRCGGLKVGDHISAVNGQSIVDLSHDNIVQLIKDAGVTVTLTVVAEEEHHGPPSGTNSARQSPALQHRPMGQAQANHIPGDRIALEGEIGRDVCSSYRHSWSDHKHLAQPDTAVISVVGSRHNQSLGCYPVELERGPRGFGFSLRGGKEYNMGLFILRLAEDGPAIKDGRIHVGDQIVEINGEPTQGITHTRAIELIQAGGNKVLLLLRPGTGLIPDHGDWDTNSPSSSNVIYDEQPPPLPSSHSASTFEESHVPATEDSLTRVQICEKAEELKDTVQEKKSTLNGSQPEMKYQSVHKTMSKKDPPRGSGHGEKSRLKGENGVTRRGRSASPKKSVNRHSEEHLEKIPRPLKSDPKEKSRDRSLSPRKGESKGRLTIKAGSGQDPYRKDRGRSSSPKKQQKIGGNSLSNTEGKLSEAGSRRAAGHPRDSTEQLPDGREKSGVSRKDLKQSQPGKTRTKSPEKKSSKVDETSLPSKKTSSTAGRVVSEKEKGKKPTAGETSRETVEHTQISAKQLKQEAQEKTALGNADDHKGRESEVTDRCRERAGCTPQSSSLVKKAPITPGPWRVPRANKVTGTTGMADKQL
B3: Gk (protein, UniProt Q64516 1-559)
chain: MAAAKKAVLGPLVGAVDQGTSSTRFLVFNSKTAELLSHHQVEIKQEFPREGWVEQDPKEILQSVYECIEKTCEKLGQLNIDISNIKAIGVSNQRETTVVWDKVTGEPLYNAVVWLDLRTQSTVENLSKRIPGNNNFVKSKTGLPLSTYFSAVKLRWLLDNVKKVQEAVEENRALFGTIDSWLIWSLTGGIHGGVHCTDVTNASRTMLFNIHSLEWDKELCEFFGIPMEILPNVRSSSEIYGLMKISHSLKAGALEGVPISGCLGDQSAALVGQMCFQDGQAKNTYGTGCFLLCNTGHKCVFSEHGLLTTVAYKLGRDKPVYYALEGSVAIAGAVIRWLRDNLGIIKSSEEIEKLAKEVGTSYGCYFVPAFSGLYAPYWEPSARGIICGLTQFTNKCHIAFAALEAVCFQTREILDAMNRDCGIPLSHLQVDGGMTSNKILMQLQADILYIPVVKPSMPETTALGAAMAAGAAEGVGVWSLEPEDLSAVTMERFEPQINAEESEIRYSTWKKAVMKSIGWVTTQSPESGDPSIFCSLPLGFFIVSSMVMLIGARYISGIP
B4: Fn3k (protein, UniProt Q9ER35 1-309)
chain: MEQLLRAQLHTTTLRAFGSSGGGCISEGYAYYTDSGPVFVKVNRRTQARQMFEGEMASLEALRNTGLVRVPKPMKVIDLPGGGAVFVMEHLKMKSLSSQASKLGEQMADLHLYNQKLREKSKTRQNTVGCGAEGAEPQGVTKFGFHTVTCCGFIPQVNEWQEDWPTFFTRHRLQAQLDLIEKDYADRETQELWSRLQVKIPDLFAGIEIVPALLHGDLWSGNVAEDDQGPVIYDPASFYGHSEFELAIASMFGGFPRSFFTAYHRKIPKAPGFDKRLLLYQLFNYLNHWNHFGREYRSPSLGVMRKLLR
B5: Mapk8ip2 (protein, UniProt Q9ERE9 1-830)
chain: MADRAEMFSLSTFHSLSPPGCRPPQDISLEEFDDEDLSEITDDCGLGLSYDSDHCEKDSLSLGRSEQPHPICSFQDDFQEFEMIDDNEEEDDEEEEEEEEEEEDGDRQGKAGGGPGSQALAGDSLIPSPSLEESHKLRPTTLHLTTLGAQDSLNNNNGGFTSAPPSSWQETVLRSPAQEPLKELPAPLLPAEEERHEVQSLARPGCDCEGNQPPEPPASSGGASPSSDPGIEADLRSHSSGGHEGRRSSQELSSPGSDSEDAGGARLGRMISSISETELELSSDGGSSSGRSSHLTNSIEEASSPASEPEPEPEPLHEPPRRPAFLPVGQDDTNSEYESGSESEPDLSEDADSPWLLSNLVSRMISEGSSPIRCPGQCLSPAPRLPEEAASQANSVPQDCQDPEAGPHVELVDMDTLCGPPPPAPAAPRLGPAQPGPCLFLSNPTRDTITPLWATPGRTARPGRSCSAACSEEEEEDEEEDEEDEEDAEDSVVPPGSRTTGSTAPLDASLVYDAVKYTLVVDEHTQLELVSLRRCAGLGNDSEEDSSCEASEEEAGATLLGSDQVPEDASPDSPDLTFSKKFLNVFVNSTSRSSSTESFGLFSCVVNGEEREQTHRAVFRFIPRHPDELELDVDDPVLVEAEEDDFWFRGFNMRTGERGVFPAFYAHAVPGPAKDLLGSKRSPCWVDRFDVQFLGSVEVPCHQGNGILCAAMQKIATARKLTVHLRPPASCDLEISLRGVKLSLSGGGPEFQRCSHFFQMKNISFCGCHPRNSCYFGFITKHPLLSRFACHVFVSQESMRPVARSVGRAFLEYYQEHLAFACPTEDIYLE
B6: Cdkl5 (protein, UniProt Q3UTQ8 1-938)
chain: MKIPNIGNVMNKFEILGVVGEGAYGVVLKCRHKETHEIVAIKKFKDSEENEEVKETTLRELKMLRTLKQENIVELKEAFRRRGKLYLVFEYVEKNMLELLEEMPNGVPPEKVKSYIYQLIKAIHWCHKNDIVHRDIKPENLLISHNDVLKLCDFGFARNLSEGNNANYTEYVATRWYRSPELLLGAPYGKSVDMWSVGCILGELSDGQPLFPGESEIDQLFTIQKVLGPLPSEQMKLFYSNPRFHGLRFPAVNHPQSLERRYLGILNSVLLDLMKNLLKLDPADRYLTEQCLNHPTFQTQRLLDRSPSRSTKRKPYHVESSTLSNRNQSTKGAALQTHHRSNSKDIQNLSVGLPRAEEGLPANESFLNGNLAGATLSPMHTKTYQASTQPGSSSKDLTNNNIPHLLSPKEAKSKTEFDFNIDTKPSEGPGTKYLKSSTRSQQNRHSFMESSQSKAGTLQPSEKQSRHSYIDTIPQSSRSPSYRTKAKSHGALSDSKSVSNLSEARAQITETNTSRYFPSSCLDLNSPTSPTPTRHTDTRTLLSPSGRNNRNEGTLDSRRTTTRHSKTMEELKLPEHMDSSHSHSLSAPHESFSYGLGYTSPFSSQQRPHRHSMYVTRDKVRAKGLDGSLSIGQGMAARANSLQLLSPQPGEQLPPEMTVARPSVKESSREGASSFHTRQKSEGGVYHDPHSDDGTAPKENRHLYNDPVPRRVGSFYRVPSPRPDNSFHENNVSTRVSSLPSDSSSGTNHSKRQPGFDPWKSPENISHADQLKEKEKQGFFRSMKKKKKKTQTVPNTDGPDLLTLQKAIHSSSTASSRPKEWRPEKLSDLQTQSQPLKSLRKLLHLSSSTNHPASSDPRFQPLTAQQAKNSFSEIRIHPLSQATGGSSNIRQEPTPKGRPALQLPGSSLLRYNGWKHSRSRSSQPDEVIFLASHEKWKQ
B7: Agk (protein, UniProt Q9ESW4 1-421)
chain: MTAFFKTLRNHWKKTTAGLCLLTWGGHWLYGKHCDNLLRRAACQEAQVFGNQLIPPNAQVKKATVFLNPAACKGKARTLFEKNAAPILHLSGMDVTVVKTDYEGQAKKLLELMESTDVIIVAGGDGTLQEVVTGVLRRTDEATFSKIPIGFIPLGQTSSLSHTLFAESGNKVQHITDATLAIVKGETVPLDVLQIKGEKEQPVYAMTGLRWGSFRDAGVKVSKYWYLGPLKTKAAHFFSTLQEWPQTHQASISYTGPRERPPIEPEETPPRPSLYRRILRRLASFWAQPQDASSREVSPEVWKDVQLSTIELSITTRNTQLDLMSKEDFMNICIEPDTVSKGDFIIIGSKKVRDPGLRAAGTECLQASHCTLVLPEGTEGSFSIDSEEYEAMPVEVKLLPRKLRFFCDPRKREQMLPSTSQ
B8: Cerk (protein, UniProt Q8K4Q7 1-531)
chain: MGAMGAAEPLHSVLWVKRRRCAVSLEPARALLRWWRSPEPGPSAPGADARSVLVSEIIAVEEKDDCEKHASSGRWHKMENPFAFTVHRVKRVRHHRWKWARVTFWSADEQLCHLWLQTLRGLLESLTSRPKHLLVFINPFGGKGQGKRIYEKTVAPLFTLASITTEIIITEHANQAKETLYEINTDSYDGIVCVGGDGMFSEVLHGVIGRTQQSAGIDPNHPRAVLVPSTLRIGIIPAGSTDCVCYSTVGTNDAETSALHIIIGDSLAIDVSSVHYHNTLLRYSVSLLGYGFYGDLIKDSEKKRWMGLVRYDFSGLKTFLSHQYYEGTLSFLPAQHTVGSPRDNKPCRAGCFVCRQSKQQLEEEEKKALYGLENAEEMEEWQVTCGKFLAINATNMSCACPRSPGGLSPFAHLGDGSSDLILIRKCSRFNFLRFLIRHTNQEDQFDFTFVEVYRVKKFHFTSKHVEDEDNDSKEQEKQKFGKICKDRPSCTCSASRSSWNCDGEVMHSPAIEVRVHCQLVRLFARGIEEES

What follows are binders tested against serotonin transporter, wildtype (WT SERT) (mouse (endogenous in midbrain synaptosomes)) (UniProt Q60857) (assay: affinity purification with mass spectrometry; SERT immunoprecipitated with C-terminal anti-SERT serum #48 cross-linked to protein A Dynabeads from midbrain synaptosomes (lysed in PBS + 0.7% DDM, 4°C) of WT, SERT Ala56 and SERT KO (negative control) mice; in-gel tryptic digestion, 8-step MudPIT LC-MS/MS; label-free quantification).

binding, binds:
B1
B2
B3
B4
B5
B6
B7
B8
